Results are given in words; binding and its absence hold for the method and conditions named.
Biological target: Im7 fusion protein of PsbU (Thermosynechococcus elongatus) (UniProt Q9F1L5)
Assay: SPR; Biacore3000, CM5 chip coated with DNase E7; extrinsic proteins as Im7 fusion proteins overexpressed in E. coli; who was immobilised is not told in the main text; details in the supplementary material; both purified

Protein sequences, listed by entry. Tags and fused reporters are not part of them. Lines headed by an entry give the natural chain unless they say otherwise; changes in a name come on top.
UniProt Q9F1L5: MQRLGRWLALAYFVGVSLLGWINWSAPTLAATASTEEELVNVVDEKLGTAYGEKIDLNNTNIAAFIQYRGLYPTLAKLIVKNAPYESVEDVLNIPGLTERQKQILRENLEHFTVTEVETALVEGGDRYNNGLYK

binding: no binding (tested: up to 100 μM)
B1: CyanoP (protein, UniProt Q8DH84 20-183)
chain: CSATSGLQAYVDSYDGYEFLYPRGWVQVQVEDPVDVVFHDIIETTENVSVVVNTVASTKSLEELGSPEEVGDRLLRNIIAPSESGRSSALIAATSQKADDKTYYILEYAVTLPGDGNTAQQRHNLSSIAVSRGKVYTLSVSAPEERWPKVEDQFKTIVSSFTVY
